Assay results published in the supplement of paper PMC10849652.
Some of the results follow.

Protein sequences, listed by entry. Tags and fused reporters are not part of them. Lines headed by an entry give the natural chain unless they say otherwise; changes in a name come on top.
UniProt O43502: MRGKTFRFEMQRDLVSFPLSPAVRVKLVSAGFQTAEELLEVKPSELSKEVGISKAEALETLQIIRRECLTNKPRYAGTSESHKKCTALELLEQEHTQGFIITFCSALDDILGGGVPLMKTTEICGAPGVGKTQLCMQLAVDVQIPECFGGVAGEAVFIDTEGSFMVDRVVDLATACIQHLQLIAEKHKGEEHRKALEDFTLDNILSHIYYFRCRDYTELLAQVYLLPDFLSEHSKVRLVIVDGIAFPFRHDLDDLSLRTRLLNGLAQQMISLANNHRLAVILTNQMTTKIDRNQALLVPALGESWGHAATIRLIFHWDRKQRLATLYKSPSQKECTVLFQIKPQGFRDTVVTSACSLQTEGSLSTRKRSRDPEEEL
UniProt P61225: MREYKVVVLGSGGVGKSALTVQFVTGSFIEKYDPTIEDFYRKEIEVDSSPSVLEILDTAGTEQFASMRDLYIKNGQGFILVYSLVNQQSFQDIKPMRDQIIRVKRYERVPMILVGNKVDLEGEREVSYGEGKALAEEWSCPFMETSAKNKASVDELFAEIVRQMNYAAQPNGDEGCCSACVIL
UniProt P51149, whole entry, looked up: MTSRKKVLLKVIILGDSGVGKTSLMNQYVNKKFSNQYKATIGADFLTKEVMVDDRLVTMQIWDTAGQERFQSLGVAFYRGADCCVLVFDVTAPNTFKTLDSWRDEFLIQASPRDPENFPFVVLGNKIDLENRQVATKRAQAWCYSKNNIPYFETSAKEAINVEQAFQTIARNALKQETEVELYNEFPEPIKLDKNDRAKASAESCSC
UniProt Q92878: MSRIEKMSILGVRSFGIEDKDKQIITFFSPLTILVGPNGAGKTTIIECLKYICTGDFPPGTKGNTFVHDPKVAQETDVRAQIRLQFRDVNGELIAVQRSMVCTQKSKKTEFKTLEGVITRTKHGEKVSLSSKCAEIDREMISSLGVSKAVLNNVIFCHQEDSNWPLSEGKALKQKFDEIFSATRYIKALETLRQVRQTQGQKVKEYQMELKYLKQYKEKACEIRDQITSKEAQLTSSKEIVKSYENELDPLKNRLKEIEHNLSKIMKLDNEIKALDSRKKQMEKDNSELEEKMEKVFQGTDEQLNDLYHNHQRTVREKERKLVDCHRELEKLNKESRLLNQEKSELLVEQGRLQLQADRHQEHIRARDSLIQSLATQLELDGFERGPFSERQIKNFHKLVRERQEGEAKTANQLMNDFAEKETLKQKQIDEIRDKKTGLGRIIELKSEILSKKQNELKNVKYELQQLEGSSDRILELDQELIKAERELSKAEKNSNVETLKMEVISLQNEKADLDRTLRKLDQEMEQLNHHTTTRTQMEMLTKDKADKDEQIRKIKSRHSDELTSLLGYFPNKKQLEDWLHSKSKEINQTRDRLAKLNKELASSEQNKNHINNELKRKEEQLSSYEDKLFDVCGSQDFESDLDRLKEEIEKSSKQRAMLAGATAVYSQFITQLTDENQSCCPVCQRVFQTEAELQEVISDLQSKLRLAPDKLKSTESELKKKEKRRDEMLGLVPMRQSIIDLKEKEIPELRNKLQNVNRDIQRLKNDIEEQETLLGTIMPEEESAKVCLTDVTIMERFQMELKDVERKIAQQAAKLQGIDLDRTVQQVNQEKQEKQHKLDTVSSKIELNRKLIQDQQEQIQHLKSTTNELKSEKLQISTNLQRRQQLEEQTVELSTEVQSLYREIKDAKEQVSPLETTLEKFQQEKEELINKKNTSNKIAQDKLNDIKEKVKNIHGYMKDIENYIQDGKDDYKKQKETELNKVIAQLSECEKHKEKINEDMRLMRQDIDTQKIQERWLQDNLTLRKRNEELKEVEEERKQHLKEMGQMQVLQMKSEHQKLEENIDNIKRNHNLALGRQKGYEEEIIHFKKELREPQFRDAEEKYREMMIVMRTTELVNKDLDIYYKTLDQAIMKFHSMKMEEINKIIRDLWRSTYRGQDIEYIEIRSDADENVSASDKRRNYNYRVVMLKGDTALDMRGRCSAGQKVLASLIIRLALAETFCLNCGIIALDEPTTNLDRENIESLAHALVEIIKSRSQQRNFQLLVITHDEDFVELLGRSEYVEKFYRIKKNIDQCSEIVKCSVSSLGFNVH
UniProt P11233: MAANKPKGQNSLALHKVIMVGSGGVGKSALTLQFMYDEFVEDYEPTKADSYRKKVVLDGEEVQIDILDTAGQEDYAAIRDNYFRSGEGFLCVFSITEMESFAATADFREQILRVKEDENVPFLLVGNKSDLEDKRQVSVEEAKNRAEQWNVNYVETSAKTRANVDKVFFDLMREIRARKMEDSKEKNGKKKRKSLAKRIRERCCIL
UniProt P51153: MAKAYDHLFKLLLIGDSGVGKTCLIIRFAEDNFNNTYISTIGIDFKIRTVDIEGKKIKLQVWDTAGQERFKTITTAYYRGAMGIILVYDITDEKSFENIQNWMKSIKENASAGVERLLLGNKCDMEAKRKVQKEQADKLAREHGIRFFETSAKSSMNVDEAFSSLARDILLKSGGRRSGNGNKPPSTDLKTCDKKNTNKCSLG
UniProt P11234: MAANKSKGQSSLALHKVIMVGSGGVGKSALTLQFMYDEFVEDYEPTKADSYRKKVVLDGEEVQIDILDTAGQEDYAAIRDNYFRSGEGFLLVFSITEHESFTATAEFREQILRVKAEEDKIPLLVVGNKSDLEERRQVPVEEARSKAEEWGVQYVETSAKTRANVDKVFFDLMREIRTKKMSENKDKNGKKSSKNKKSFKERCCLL
UniProt Q92930: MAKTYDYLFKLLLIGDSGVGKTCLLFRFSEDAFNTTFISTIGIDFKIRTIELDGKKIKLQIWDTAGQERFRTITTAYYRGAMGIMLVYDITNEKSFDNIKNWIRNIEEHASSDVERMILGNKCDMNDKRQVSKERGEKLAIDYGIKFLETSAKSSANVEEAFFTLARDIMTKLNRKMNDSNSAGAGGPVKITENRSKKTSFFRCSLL
UniProt Q8TBN0: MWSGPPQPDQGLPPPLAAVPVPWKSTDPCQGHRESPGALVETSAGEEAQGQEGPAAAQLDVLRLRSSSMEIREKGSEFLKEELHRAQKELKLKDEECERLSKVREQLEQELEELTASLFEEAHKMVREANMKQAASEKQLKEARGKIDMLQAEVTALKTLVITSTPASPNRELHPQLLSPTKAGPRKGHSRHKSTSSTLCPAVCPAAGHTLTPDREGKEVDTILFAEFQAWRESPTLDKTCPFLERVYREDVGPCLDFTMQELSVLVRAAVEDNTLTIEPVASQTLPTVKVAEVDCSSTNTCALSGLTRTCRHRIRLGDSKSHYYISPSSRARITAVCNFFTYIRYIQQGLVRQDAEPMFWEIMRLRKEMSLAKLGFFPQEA
UniProt Q6GYQ0: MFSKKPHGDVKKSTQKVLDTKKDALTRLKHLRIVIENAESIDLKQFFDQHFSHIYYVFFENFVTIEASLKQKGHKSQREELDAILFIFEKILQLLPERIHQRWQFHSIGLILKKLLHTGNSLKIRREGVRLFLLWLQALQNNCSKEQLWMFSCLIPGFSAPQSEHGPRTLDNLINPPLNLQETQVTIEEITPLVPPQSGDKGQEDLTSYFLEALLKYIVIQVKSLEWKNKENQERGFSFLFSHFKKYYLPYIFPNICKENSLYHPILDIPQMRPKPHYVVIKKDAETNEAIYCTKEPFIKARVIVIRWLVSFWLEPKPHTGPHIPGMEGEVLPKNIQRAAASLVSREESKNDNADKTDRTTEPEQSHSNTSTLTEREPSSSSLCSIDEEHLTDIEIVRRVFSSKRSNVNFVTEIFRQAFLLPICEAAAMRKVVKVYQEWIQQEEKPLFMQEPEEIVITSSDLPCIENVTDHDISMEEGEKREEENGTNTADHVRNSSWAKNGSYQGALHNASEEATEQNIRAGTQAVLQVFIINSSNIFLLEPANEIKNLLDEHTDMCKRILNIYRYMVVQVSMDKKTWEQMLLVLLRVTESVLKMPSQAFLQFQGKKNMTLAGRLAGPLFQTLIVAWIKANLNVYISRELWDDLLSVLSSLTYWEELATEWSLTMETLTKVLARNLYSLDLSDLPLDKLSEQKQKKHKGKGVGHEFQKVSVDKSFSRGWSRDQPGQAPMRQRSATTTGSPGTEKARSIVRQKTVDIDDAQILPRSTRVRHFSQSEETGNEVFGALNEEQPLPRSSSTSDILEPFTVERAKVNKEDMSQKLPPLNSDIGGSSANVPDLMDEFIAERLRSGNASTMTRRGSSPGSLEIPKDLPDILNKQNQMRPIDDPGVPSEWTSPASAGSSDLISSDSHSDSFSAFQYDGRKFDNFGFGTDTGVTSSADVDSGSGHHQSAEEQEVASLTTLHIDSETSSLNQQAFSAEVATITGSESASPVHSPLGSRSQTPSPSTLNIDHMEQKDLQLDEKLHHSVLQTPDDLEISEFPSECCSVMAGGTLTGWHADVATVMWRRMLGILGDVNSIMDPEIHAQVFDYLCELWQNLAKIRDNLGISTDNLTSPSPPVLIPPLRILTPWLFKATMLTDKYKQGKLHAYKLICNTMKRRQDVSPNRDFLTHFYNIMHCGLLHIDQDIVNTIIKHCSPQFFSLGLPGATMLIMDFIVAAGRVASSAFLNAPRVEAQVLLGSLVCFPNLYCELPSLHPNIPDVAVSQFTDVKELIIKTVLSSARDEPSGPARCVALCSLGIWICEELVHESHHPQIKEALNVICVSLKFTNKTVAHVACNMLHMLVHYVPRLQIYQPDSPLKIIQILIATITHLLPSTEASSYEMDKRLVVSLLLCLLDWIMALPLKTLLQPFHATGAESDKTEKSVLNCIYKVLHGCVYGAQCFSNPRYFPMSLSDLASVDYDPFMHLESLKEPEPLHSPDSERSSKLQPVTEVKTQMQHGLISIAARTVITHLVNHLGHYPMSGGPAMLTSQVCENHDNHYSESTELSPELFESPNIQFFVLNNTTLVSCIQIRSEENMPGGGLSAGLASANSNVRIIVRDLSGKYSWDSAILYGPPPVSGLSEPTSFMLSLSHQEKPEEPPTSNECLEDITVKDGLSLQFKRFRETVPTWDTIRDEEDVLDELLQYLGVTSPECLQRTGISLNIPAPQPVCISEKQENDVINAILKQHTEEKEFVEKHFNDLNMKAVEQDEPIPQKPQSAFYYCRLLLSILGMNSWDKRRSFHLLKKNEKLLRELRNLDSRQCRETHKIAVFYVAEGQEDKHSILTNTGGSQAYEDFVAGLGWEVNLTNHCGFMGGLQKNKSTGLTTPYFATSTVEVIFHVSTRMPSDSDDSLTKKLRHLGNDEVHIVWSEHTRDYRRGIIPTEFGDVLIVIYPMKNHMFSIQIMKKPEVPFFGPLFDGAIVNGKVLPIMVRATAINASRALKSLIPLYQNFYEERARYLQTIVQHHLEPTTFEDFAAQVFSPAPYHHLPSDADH
UniProt P20338: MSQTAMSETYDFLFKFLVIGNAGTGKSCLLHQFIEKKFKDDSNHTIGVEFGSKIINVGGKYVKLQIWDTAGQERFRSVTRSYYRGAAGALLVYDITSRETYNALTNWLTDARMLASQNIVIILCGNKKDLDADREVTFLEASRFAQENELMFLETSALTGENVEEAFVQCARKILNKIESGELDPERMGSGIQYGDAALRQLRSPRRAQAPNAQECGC
UniProt P61006: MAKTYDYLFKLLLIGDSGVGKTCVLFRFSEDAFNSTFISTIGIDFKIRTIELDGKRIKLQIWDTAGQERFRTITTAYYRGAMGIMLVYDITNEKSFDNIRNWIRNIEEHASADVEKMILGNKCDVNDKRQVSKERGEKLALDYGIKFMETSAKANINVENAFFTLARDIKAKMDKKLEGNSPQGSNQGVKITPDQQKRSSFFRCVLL
UniProt P62834: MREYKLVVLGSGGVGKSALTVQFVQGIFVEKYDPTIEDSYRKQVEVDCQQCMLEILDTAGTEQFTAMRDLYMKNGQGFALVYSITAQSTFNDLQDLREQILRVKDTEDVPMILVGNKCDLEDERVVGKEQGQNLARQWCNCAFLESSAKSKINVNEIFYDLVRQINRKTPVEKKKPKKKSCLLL
UniProt P78406: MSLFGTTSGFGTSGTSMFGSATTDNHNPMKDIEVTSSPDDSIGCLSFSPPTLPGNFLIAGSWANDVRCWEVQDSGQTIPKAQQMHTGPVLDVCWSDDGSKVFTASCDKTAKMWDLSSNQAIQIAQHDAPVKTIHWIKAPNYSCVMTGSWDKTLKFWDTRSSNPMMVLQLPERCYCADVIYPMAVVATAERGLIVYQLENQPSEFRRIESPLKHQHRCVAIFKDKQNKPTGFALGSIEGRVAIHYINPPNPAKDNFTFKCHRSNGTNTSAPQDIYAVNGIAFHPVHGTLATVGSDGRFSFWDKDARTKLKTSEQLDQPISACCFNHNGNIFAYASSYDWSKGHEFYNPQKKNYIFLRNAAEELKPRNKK

Columns and labels:
Assay in all cases: log2 fold change, soluble protein after heating vs DMSO (PISA); higher = thermal stabilisation; K562 lysate, 10 uM; active = over 0.2 and 3.5 SD of the protein, either way, in both replicates (recomputed)
alvocidib = compound: CN1CC[C@H](c2c(O)cc(O)c3c(=O)cc(-c4ccccc4Cl)oc23)[C@H](O)C1 [alvocidib]
Method in brief: (§1)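 Thermal stability, expressed as log-two fold change relative to solvent controls, is given from duplicates. Crude K562 extract in PBS pH 7.4 with 1 mM MgCl2, at 1 mg/mL protein, was treated with 10 μM compound for 30 min and heated in aliquots for 3 min across 48°C-58°C. After pooling, adjustment to 0.5% NP-40 at 4°C and centrifugation at 21,000xg for 90 min, supernatant protein was measured by TMTpro 16plex LC-MS/MS with channel sums equalised.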

Tubastatin A = compound: CN1CCc2c(c3ccccc3n2Cc2ccc(C(=O)NO)cc2)C1 [Tubastatin A]
Method in brief: as §1

[1] = compound: CNC(=O)C1=CC=CC=C1NC2=NC(=NC=C2Cl)NC3=C(C=C(C=C3)N4CCOCC4)OC
Method in brief: as §1

defactinib = compound: CNC(=O)c1ccc(Nc2ncc(C(F)(F)F)c(NCc3nccnc3N(C)S(C)(=O)=O)n2)cc1 [defactinib]
Method in brief: as §1

[2] = compound: CNc1nc(-c2ccc3c(N)n[nH]c3c2)cc(N2C[C@@H](C(=O)NC3CCCCC3)CC[C@H]2C)n1
Method in brief: as §1

encorafenib = compound: COC(=O)N[C@@H](C)CNc1nccc(-c2cn(C(C)C)nc2-c2cc(Cl)cc(NS(C)(=O)=O)c2F)n1 [encorafenib]
Method in brief: as §1

[3] = compound: COC(=O)[C@H](CCSC)NC(=O)C1=C(C=C(C=C1)NC[C@H](CS)N)C2=CC=CC=C2
Method in brief: as §1

alisertib = compound: COc1cc(Nc2ncc3c(n2)-c2ccc(Cl)cc2C(c2c(F)cccc2OC)=NC3)ccc1C(=O)O [alisertib]
Method in brief: as §1

[4] = compound: COc1cc2nc(-c3cc(F)ccc3O)nc(N[C@@H]3CNC[C@H]3C(C)(C)O)c2cc1OC
Method in brief: as §1

gefitinib = compound: COc1cc2ncnc(Nc3ccc(F)c(Cl)c3)c2cc1OCCCN1CCOCC1 [gefitinib]
Method in brief: as §1

lapatinib = compound: CS(=O)(=O)CCNCc1ccc(-c2ccc3ncnc(Nc4ccc(OCc5cccc(F)c5)c(Cl)c4)c3c2)o1 [lapatinib]
Method in brief: as §1

pictilisib = compound: CS(=O)(=O)N1CCN(Cc2cc3nc(-c4cccc5[nH]ncc45)nc(N4CCOCC4)c3s2)CC1 [pictilisib]
Method in brief: as §1

crizotinib = compound: C[C@@H](Oc1cc(-c2cnn(C3CCNCC3)c2)cnc1N)c1c(Cl)ccc(F)c1Cl [crizotinib]
Method in brief: as §1

[5] = compound: C[C@H](C1=CC=C(C=C1)C(=O)NC2=C3C=CNC3=NC=C2)N
Method in brief: as §1

duvelisib = compound: C[C@H](Nc1ncnc2nc[nH]c12)c1cc2cccc(Cl)c2c(=O)n1-c1ccccc1 [duvelisib]
Method in brief: as §1

gandotinib = compound: Cc1cc(Nc2cc(CN3CCOCC3)c3nc(C)c(Cc4ccc(Cl)cc4F)n3n2)n[nH]1 [gandotinib]
Method in brief: as §1

tozasertib = compound: Cc1cc(Nc2cc(N3CCN(C)CC3)nc(Sc3ccc(NC(=O)C4CC4)cc3)n2)n[nH]1 [tozasertib]
Method in brief: as §1

doramapimod = compound: Cc1ccc(-n2nc(C(C)(C)C)cc2NC(=O)Nc2ccc(OCCN3CCOCC3)c3ccccc23)cc1 [doramapimod]
Method in brief: as §1

bafetinib = compound: Cc1ccc(NC(=O)c2ccc(CN3CC[C@H](N(C)C)C3)c(C(F)(F)F)c2)cc1Nc1nccc(-c2cncnc2)n1 [bafetinib]
Method in brief: as §1

[6] = compound: Cc1cccc(CC(=O)N2CCc3c2ccc(-c2cn(C)c4ncnc(N)c24)c3F)n1
Method in brief: as §1

Measured: log2 fold change

RAD51C (UniProt O43502)
inactive: alvocidib 0.061 | Tubastatin A -0.081 | [1] 0.002 | defactinib 0.035 | [2] 0.072 | encorafenib -0.058 | [3] 0.004 | alisertib -0.005 | [4] 0.047 | gefitinib -0.016 | lapatinib -0.042 | pictilisib -0.023 | crizotinib -0.074 | [5] -0.006 | duvelisib 0.022 | gandotinib 0.065 | tozasertib -0.089 | doramapimod 0.074 | bafetinib -0.119 | [6] -0.044

RAP2B (UniProt P61225)
inactive: alvocidib 0.014 | Tubastatin A 0.07 | [1] 0.024 | defactinib 0.075 | [2] -0.019 | encorafenib 0.019 | [3] -0.013 | alisertib -0.02 | [4] 0.021 | gefitinib -0.002 | lapatinib -0.033 | pictilisib 0.015 | crizotinib 0 | [5] -0.031 | duvelisib 0.001 | gandotinib 0.005 | tozasertib -0.024 | doramapimod -0.03 | bafetinib 0.017 | [6] 0.032

RAB7A (UniProt P51149)
inactive: alvocidib -0.014 | Tubastatin A 0.088 | [1] -0.035 | defactinib -0.003 | [2] -0.005 | encorafenib 0.005 | [3] -0.021 | alisertib 0.014 | [4] 0.049 | gefitinib 0.032 | lapatinib 0.02 | pictilisib -0.005 | crizotinib 0.04 | [5] -0.028 | duvelisib 0.034 | gandotinib -0.035 | tozasertib 0.026 | doramapimod -0.022 | bafetinib 0.083 | [6] 0.046

RAD50 isoform 2 (UniProt Q92878)
inactive: alvocidib 0.023 | Tubastatin A -0.137 | [1] 0.008 | defactinib 0.026 | [2] -0.04 | encorafenib 0.006 | [3] 0.108 | alisertib 0.002 | [4] 0.001 | gefitinib -0.016 | lapatinib -0.012 | pictilisib -0.001 | crizotinib -0.025 | [5] 0.007 | duvelisib -0.019 | gandotinib -0.07 | tozasertib 0.011 | doramapimod -0.003 | bafetinib -0.004 | [6] 0.006

RALA (UniProt P11233)
active: [5] -0.3 | [6] 0.217
inactive: alvocidib -0.164 | Tubastatin A 0.044 | [1] 0.016 | defactinib -0.057 | [2] 0.056 | encorafenib 0.03 | [3] -0.102 | alisertib 0.009 | [4] 0.01 | gefitinib 0.023 | lapatinib -0.017 | pictilisib -0.022 | crizotinib 0.012 | duvelisib 0 | gandotinib 0.158 | tozasertib -0.009 | doramapimod 0.014 | bafetinib 0.029

RAB11FIP1 (UniProt Q6WKZ4)
inactive: alvocidib -0.022 | Tubastatin A 0.011 | [1] 0.015 | defactinib 0.01 | [2] 0.051 | encorafenib 0.044 | [3] -0.059 | alisertib -0.018 | [4] 0.013 | gefitinib -0.036 | lapatinib -0.003 | pictilisib -0.002 | crizotinib -0.005 | [5] -0.014 | duvelisib 0 | gandotinib -0.05 | tozasertib -0.008 | doramapimod 0.032 | bafetinib -0.049 | [6] 0.013

RAB13 (UniProt P51153)
inactive: alvocidib 0.015 | Tubastatin A -0.085 | [1] -0.056 | defactinib 0.061 | [2] -0.141 | encorafenib 0.101 | [3] -0.054 | alisertib 0.057 | [4] 0.01 | gefitinib 0.05 | lapatinib 0.018 | pictilisib 0.018 | crizotinib 0.182 | [5] 0.022 | duvelisib 0.022 | gandotinib -0.105 | tozasertib 0.082 | doramapimod 0.003 | bafetinib 0.13 | [6] -0.041

RALB isoform 2 (UniProt P11234)
inactive: alvocidib -0.059 | Tubastatin A 0.029 | [1] -0.023 | defactinib 0.025 | [2] -0.02 | encorafenib 0.039 | [3] -0.033 | alisertib 0.01 | [4] 0.013 | gefitinib 0.03 | lapatinib -0.05 | pictilisib -0.089 | crizotinib 0.031 | [5] -0.164 | duvelisib 0.016 | gandotinib 0.095 | tozasertib 0.074 | doramapimod 0.009 | bafetinib -0.002 | [6] 0.144

RAB3IL1 (UniProt E9PK89)
inactive: alvocidib -0.008 | Tubastatin A -0.025 | [1] 0.023 | defactinib 0.123 | [2] 0.005 | encorafenib 0.047 | [3] 0.024 | alisertib 0.032 | [4] -0.07 | gefitinib 0 | lapatinib -0.025 | pictilisib 0.063 | crizotinib 0.039 | [5] 0.045 | duvelisib -0.036 | gandotinib 0.006 | tozasertib 0.059 | doramapimod -0.117 | bafetinib -0.094 | [6] 0.057

RAB8B (UniProt Q92930)
active: gandotinib -0.289
inactive: alvocidib 0.037 | Tubastatin A 0.034 | [1] -0.011 | defactinib -0.016 | [2] -0.026 | encorafenib -0.002 | [3] -0.045 | alisertib 0.016 | [4] 0.015 | gefitinib 0.115 | lapatinib 0.065 | pictilisib -0.018 | crizotinib 0.034 | [5] 0.037 | duvelisib 0.098 | tozasertib 0.003 | doramapimod -0.013 | bafetinib 0.088 | [6] -0.079

RAB3IL1 (UniProt Q8TBN0)
inactive: alvocidib 0.027 | Tubastatin A -0.021 | [1] 0.022 | defactinib 0.007 | [2] 0.009 | encorafenib -0.006 | [3] -0.031 | alisertib -0.013 | [4] 0.039 | gefitinib 0.014 | lapatinib -0.002 | pictilisib -0.034 | crizotinib -0.023 | [5] 0 | duvelisib -0.003 | gandotinib -0.014 | tozasertib -0.004 | doramapimod -0.012 | bafetinib 0.006 | [6] -0.02

RALGAPA1 isoform 6 (UniProt Q6GYQ0)
inactive: alvocidib -0.102 | Tubastatin A 0.033 | [1] 0.007 | defactinib 0.069 | [2] 0.003 | encorafenib 0.016 | [3] 0.094 | alisertib -0.029 | [4] 0.047 | gefitinib 0.056 | lapatinib -0.075 | pictilisib -0.157 | crizotinib 0.036 | duvelisib 0.074 | gandotinib 0.257 | tozasertib -0.006 | doramapimod 0.062 | bafetinib -0.026 | [6] 0.321
active: [5] -0.28

RAB4A (UniProt P20338)
inactive: alvocidib 0.017 | Tubastatin A 0.005 | [1] 0.02 | defactinib -0.012 | [2] -0.018 | encorafenib 0.028 | [3] -0.054 | alisertib -0.027 | [4] 0.011 | gefitinib 0.035 | lapatinib -0.003 | pictilisib -0.032 | crizotinib 0.036 | [5] 0.022 | duvelisib 0 | gandotinib -0.062 | tozasertib 0.02 | doramapimod 0.036 | bafetinib -0.014 | [6] -0.072

RAB8A (UniProt P61006)
inactive: alvocidib 0.019 | Tubastatin A 0.011 | [1] -0.026 | defactinib -0.001 | [2] -0.093 | encorafenib 0.05 | [3] -0.034 | alisertib 0.006 | [4] 0.04 | gefitinib 0.034 | lapatinib -0.039 | pictilisib -0.017 | crizotinib 0.102 | [5] -0.038 | duvelisib 0.009 | gandotinib -0.025 | tozasertib 0.028 | doramapimod -0.021 | bafetinib -0.002 | [6] -0.012

RAP1A (UniProt P62834)
inactive: alvocidib -0.009 | Tubastatin A 0.048 | [1] 0.012 | defactinib -0.007 | [2] 0.024 | encorafenib -0.01 | [3] -0.031 | alisertib -0.04 | [4] 0.024 | gefitinib -0.058 | lapatinib -0.046 | pictilisib -0.012 | crizotinib 0.058 | [5] -0.092 | duvelisib 0.007 | gandotinib -0.005 | tozasertib 0.033 | doramapimod -0.043 | bafetinib 0.028 | [6] 0.016

Reprinted at random: two entries already listed
RAB4A (UniProt P20338)
inactive: alvocidib 0.017 | Tubastatin A 0.005 | [1] 0.02 | defactinib -0.012 | [2] -0.018 | encorafenib 0.028 | [3] -0.054 | alisertib -0.027 | [4] 0.011 | gefitinib 0.035 | lapatinib -0.003 | pictilisib -0.032 | crizotinib 0.036 | [5] 0.022 | duvelisib 0 | gandotinib -0.062 | tozasertib 0.02 | doramapimod 0.036 | bafetinib -0.014 | [6] -0.072

RAP1A (UniProt P62834)
inactive: alvocidib -0.009 | Tubastatin A 0.048 | [1] 0.012 | defactinib -0.007 | [2] 0.024 | encorafenib -0.01 | [3] -0.031 | alisertib -0.04 | [4] 0.024 | gefitinib -0.058 | lapatinib -0.046 | pictilisib -0.012 | crizotinib 0.058 | [5] -0.092 | duvelisib 0.007 | gandotinib -0.005 | tozasertib 0.033 | doramapimod -0.043 | bafetinib 0.028 | [6] 0.016

The list goes on:

RAE1 (UniProt P78406)
active: [3] 0.345
inactive: alvocidib -0.038 | Tubastatin A -0.072 | [1] 0.039 | defactinib -0.004 | [2] -0.044 | encorafenib 0.038 | alisertib -0.015 | [4] -0.002 | gefitinib 0.033 | lapatinib 0.055 | pictilisib 0.003 | crizotinib 0.05 | [5] -0.158 | duvelisib -0.063 | gandotinib 0.031 | tozasertib -0.071 | doramapimod -0.032 | bafetinib 0.235 | [6] 0.111
